Results are given in words; binding and its absence hold for the method and conditions named. Binding can be weak; no strength is given. Sequences can lack the tags named with a protein.
Target: T1, GST-DIP2B-Caic (UniProt Q3UH60)
T1 sequence: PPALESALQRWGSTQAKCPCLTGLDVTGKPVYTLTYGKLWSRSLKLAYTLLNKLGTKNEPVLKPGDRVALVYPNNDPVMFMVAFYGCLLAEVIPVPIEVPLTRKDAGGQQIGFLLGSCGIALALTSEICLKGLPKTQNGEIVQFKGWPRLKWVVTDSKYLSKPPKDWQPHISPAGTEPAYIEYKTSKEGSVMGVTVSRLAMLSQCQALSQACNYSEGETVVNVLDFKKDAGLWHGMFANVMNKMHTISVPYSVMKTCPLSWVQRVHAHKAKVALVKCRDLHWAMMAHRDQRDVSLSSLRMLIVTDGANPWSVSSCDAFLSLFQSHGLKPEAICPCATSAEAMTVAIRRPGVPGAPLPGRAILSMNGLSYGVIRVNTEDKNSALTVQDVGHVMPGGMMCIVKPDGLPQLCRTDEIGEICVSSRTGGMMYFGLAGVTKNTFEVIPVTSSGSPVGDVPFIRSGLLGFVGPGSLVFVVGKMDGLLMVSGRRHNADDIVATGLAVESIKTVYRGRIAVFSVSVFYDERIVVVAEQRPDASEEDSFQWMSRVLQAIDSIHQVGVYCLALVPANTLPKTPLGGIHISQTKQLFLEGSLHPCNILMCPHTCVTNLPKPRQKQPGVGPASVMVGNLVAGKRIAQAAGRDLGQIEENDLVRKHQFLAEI
Experiment: pull-down; purified tubulin incubated with GST-DIP2B-Caic and GST proteins as bait; Western blotting; both purified

binding: binds
Substance: Purified tubulin
